These are yes or no findings as the source states them, for the method shown. In cells and extracts the contact can be indirect. Some binding calls cover weakened binding; strength is not graded here. Sequences can lack the tags named with a protein.
Columns and labels:
[1] = molecular target: T1, FLAG-tagged WT DNAJC5 (human) (UniProt Q9H3Z4); assay: co-IP; HEK293T cells transfected with FLAG-tagged DNAJC5 variants or empty vector together with MYC-tagged CHIP; FLAG beads pulled down DNAJC5; bound proteins by immunoblotting
T1 sequence: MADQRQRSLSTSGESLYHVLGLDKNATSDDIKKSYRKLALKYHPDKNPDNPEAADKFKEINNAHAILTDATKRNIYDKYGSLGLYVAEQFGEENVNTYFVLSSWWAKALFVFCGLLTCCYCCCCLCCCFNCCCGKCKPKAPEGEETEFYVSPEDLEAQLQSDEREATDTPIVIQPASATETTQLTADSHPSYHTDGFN

Amino acid sequences for entries named in this document (tags omitted).
UniProt Q9UNE7: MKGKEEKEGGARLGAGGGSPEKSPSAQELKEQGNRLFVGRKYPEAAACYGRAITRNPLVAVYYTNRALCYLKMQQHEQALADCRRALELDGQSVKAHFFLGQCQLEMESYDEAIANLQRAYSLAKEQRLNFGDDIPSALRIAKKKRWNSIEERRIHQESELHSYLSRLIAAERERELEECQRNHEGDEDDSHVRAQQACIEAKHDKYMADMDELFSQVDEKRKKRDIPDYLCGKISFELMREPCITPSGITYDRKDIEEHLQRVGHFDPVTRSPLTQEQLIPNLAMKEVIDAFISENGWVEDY
UniProt O95670: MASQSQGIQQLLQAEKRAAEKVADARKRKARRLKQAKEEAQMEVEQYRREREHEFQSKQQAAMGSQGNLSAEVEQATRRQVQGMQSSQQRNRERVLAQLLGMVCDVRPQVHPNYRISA

[2] = molecular target: T1, FLAG-tagged WT DNAJC5 (human); assay: co-IP; 293T cells transfected with FLAG-DNAJC5, fractionated into cytosol and membrane fractions; ANTI-FLAG M2 Affinity Gel 1 h at 4 °C, washed with PBS; immunoblotting for endogenous ATP6V1G2

binding [1]	binding [2]	Substance
binds		MYC-tagged CHIP (from UniProt Q9UNE7 1-303) (enzyme)
	binds	endogenous ATP6V1G2 (from UniProt O95670 1-118)
